Results deposited as PubChem BioAssay AID1053208 (Peter MacCallum Cancer Centre, 2014)
Test: 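Synthetic lethal interactions between gene loss and doxorubicin in osteosarcoma cells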 (primary screen). System: mouse osteosarcoma cells, early-passage culture from an engineered mouse model of fibroblastic bone tumour. Reagent: siRNA pool against mouse genes, 40 nM. Duration: about 120 h (48 h before drug, then 72 h with drug). Treatment: doxorubicin 100 nM for 72 h, roughly 30-40% inhibitory dose. Measurement: 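Luminescent ATP signal taken as viability with or without 100 nM doxorubicin for 72 h; mean of two wells set against non-targeting siRNA and turned into robust z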. Scale: viability z-score with doxorubicin and doxorubicin viability vs non-targeting: higher = more viable cells under doxorubicin; viability z-score without drug: higher = more viable cells with knock-down alone; z-score of drug to no-drug ratio: higher = less drug sensitisation by knock-down. Active means: 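Called active if knock-down leaves viability unchanged without drug (z within -2 to 2) but lowers it with doxorubicin (z at or under -2)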.
In all, the deposit lists about 17,000 reagents; this is a part drawn at random. 788 of all reagents (4.7%) were called active. 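Calls rest on z-score classes alone; an extra cut-off of viability at most 70% of control was not applied to them.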 Entries without a mark were called inactive. The numbers tell different reagents against one gene apart.

no.	gene knocked down	pool no.	combined z-score class	viability z-score with doxorubicin	viability z-score without drug	z-score of drug to no-drug ratio	doxorubicin viability vs non-targeting
1	Phka1	1	no change with or without drug	0.22	-0.17	0.45	0.96
2	Gjd2	1	high cell count without drug only	1.57	3.37	-0.45	1.08
3	Cyp24a1	1	no change with or without drug	0.11	1.18	-0.56	0.95
4	Nat8	1	no change with or without drug	0.45	1.18	-0.22	0.98
5	Arid4b	1	no change with or without drug	-1.57	-1.52	-0.56	0.8
6	Or5b94	1	no change with or without drug	-1.24	-1.85	0.11	0.83
7	Ssb	1	no change with or without drug	0.56	0.34	0.45	0.99
8	Hmg20b	1	no change with or without drug	-0.34	-0.51	0.11	0.91
9	Tdh	1	no change with or without drug	-1.8	0.17	-1.91	0.78
10	Gpd2	1	no change with or without drug	1.35	0.51	1.12	1.06
11	Rab18	1	no change with or without drug	0.34	1.18	-0.34	0.97
12	Gnai2	1	no change with or without drug	-1.12	-0.51	-0.79	0.84
13	Rps6ka2	1	no change with or without drug	0.11	-0.17	0.34	0.95
14	Or1j11	1	no change with or without drug	-0.45	0.51	-0.67	0.9
15	S1pr3	1	no change with or without drug	-0.67	0.17	-0.67	0.88
16	Nme5	1	no change with or without drug	-0.34	0.67	-0.67	0.91
17	Disp3	1	no change with or without drug	1.57	1.69	0.56	1.08
18	Triap1	1	no change with or without drug	-1.35	0.67	-1.69	0.82
19	Arhgef26	1	no change with or without drug	-1.35	-1.18	-0.56	0.82
20	Abcd2	1	no change with or without drug	0.9	0.34	0.79	1.02
21	Acsbg1	1	no change with or without drug	0.79	1.18	0.11	1.01
22	Gata2	1	no change with or without drug	1.8	-0.84	2.7	1.1
23	Dchs1	1	no change with or without drug	-1.35	-1.18	-0.56	0.82
24	Cd52	1	no change with or without drug	-0.34	0.51	-0.56	0.91
25	Cyp2r1	1	no change with or without drug	0.34	0.34	0.22	0.97
26	Pkd2	1	no change with or without drug	0.45	-0.51	1.01	0.98
27	Hoxc12	1	no change with or without drug	0.67	1.35	-0.11	1
28	Xcr1	1	no change with or without drug	-0.22	0.17	-0.22	0.92
29	Ccr1l1	1	no change with or without drug	-0.9	1.18	-1.57	0.86
30	Nrsn1	1	low cell count with and without drug	-2.92	-2.36	-1.57	0.68
31	Fpr3	1	high cell count without drug only	1.35	2.53	-0.22	1.06
32	Fpr3	2	no change with or without drug	-0.79	-0.17	-0.56	0.87
33	Or1ad1	1	no change with or without drug	0	1.85	-1.01	0.94
34	Epor	1	no change with or without drug	0.22	0.34	0.11	0.96
35	Zfp119b	1	no change with or without drug	-0.11	-0.84	0.56	0.93
36	Epas1	1	no change with or without drug	-0.11	0.34	-0.22	0.93
37	RANBP6	1	high cell count with doxorubicin only	2.59	-0.51	3.26	1.17
38	Sf1	1	no change with or without drug	0.45	0.84	0	0.98
39	Tm4sf4	1	no change with or without drug	-0.9	-0.51	-0.56	0.86
40	H1f8	1	no change with or without drug	-0.45	0.51	-0.67	0.9
41	Sys1	1	no change with or without drug	0.9	0.51	0.67	1.02
42	Rasgrp3	1	no change with or without drug	-0.79	-0.51	-0.34	0.87
43	Fbp2	1	no change with or without drug	-1.35	-0.67	-0.9	0.82
44	Srpk3	1	no change with or without drug	0	-1.69	1.46	0.94
45	Or9i16	1	no change with or without drug	-0.45	-1.35	0.56	0.9
46	Sncb	1	no change with or without drug	1.57	1.85	0.45	1.08
47	Pcmtd2	1	no change with or without drug	1.57	1.18	0.9	1.08
48	Cabp4	1	no change with or without drug	-0.56	-0.51	-0.11	0.89
49	Evi5l	1	no change with or without drug	-0.67	-1.18	0.22	0.88
50	Pigo	1	no change with or without drug	1.46	1.18	0.79	1.07

In a second layout: 2 of the entries above.
gene knocked down	pool no.	combined z-score class	viability z-score with doxorubicin	viability z-score without drug	z-score of drug to no-drug ratio	doxorubicin viability vs non-targeting
Or5b94	1	no change with or without drug	-1.24	-1.85	0.11	0.83
Ssb	1	no change with or without drug	0.56	0.34	0.45	0.99
